# Measured values published in PMC8384837.
# Positions count from the first letter of the chain named. The list shows a part of the results. For part of these data: At the low end of the ranking the order means little. For part of these data: Construct or isoform of the protein are uncertain.
# Columns and labels:
# Details in all cases: yeast three-hybrid, YBZ-1, SC-Leu-His + 0.5 mM 3-AT, 4 days
# [1] = target: T1, PUM1 PUF domain R2-VFQ R3-THE R4-TFR N899V + Y900F + C935T + R936H + Q939E + N971T + H972F + Q975R (UniProt Q14671)
# T1 sequence: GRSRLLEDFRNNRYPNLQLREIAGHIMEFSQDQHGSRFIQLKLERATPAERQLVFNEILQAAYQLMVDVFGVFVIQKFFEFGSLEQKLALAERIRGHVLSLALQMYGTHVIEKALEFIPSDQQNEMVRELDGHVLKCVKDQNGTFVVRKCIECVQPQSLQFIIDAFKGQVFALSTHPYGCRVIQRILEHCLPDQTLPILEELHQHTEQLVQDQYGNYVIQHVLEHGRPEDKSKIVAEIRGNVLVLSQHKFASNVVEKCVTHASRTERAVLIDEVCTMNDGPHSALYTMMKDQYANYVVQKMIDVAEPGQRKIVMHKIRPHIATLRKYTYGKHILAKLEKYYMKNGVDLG
# [2] = target: T2, PUM1 PUF domain R5-PHQ R6-SWD C1007P + R1008H + N1043S + Y1044W + Q1047D (UniProt Q14671)
# T2 sequence: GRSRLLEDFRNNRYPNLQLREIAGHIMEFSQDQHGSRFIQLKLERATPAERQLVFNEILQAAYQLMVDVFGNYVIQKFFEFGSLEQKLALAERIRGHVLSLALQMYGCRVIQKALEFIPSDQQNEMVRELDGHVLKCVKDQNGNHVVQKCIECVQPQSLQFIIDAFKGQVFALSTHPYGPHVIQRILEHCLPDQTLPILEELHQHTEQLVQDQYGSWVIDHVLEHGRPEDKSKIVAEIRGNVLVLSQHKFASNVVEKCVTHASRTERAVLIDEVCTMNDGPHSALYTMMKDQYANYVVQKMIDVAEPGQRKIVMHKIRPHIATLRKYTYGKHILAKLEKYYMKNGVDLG
# [3] = target: T3, PUM1 PUF domain R6-SWD R7-NPG N1043S + Y1044W + Q1047D + S1079N + N1080P + E1083G (Homo sapiens) (UniProt Q14671)
# T3 sequence: T2 sequence with P180C, H181R, S252N, N253P, E256G
# [4] = target: T4, PUM1 PUF domain R6-SWD R7-NPG N1043S + Y1044W + Q1047D + S1079N + N1080P + E1083G (UniProt Q14671)
# T4 sequence: T2 sequence with P180C, H181R, S252N, N253P, E256G
# [5] = target: T5, PUM1 PUF domain R3-THE R4-TFR C935T + R936H + Q939E + N971T + H972F + Q975R (UniProt Q14671)
# T5 sequence: T1 sequence with V72N, F73Y
# [6] = target: T6, PUM1 PUF domain R3-THE R4-TFR R7-NPG C935T + R936H + Q939E + N971T + H972F + Q975R + S1079N + N1080P + E1083G (UniProt Q14671)
# T6 sequence: T1 sequence with V72N, F73Y, S252N, N253P, E256G
sequence,measurement,setting,value
GGCUAGAACUAGUGGAUCCCCCGGCGCCCGGCGGCUCGAGCCCGGGUAAGAGGAAGUCGUCUGCAUGCCGCCGGGCGCCAUGCCUGCAGGUCGACUCUAGAAAACAUG,binding signal (log2 enrichment (interaction score)),[1],-5.08
same,binding signal (log2 enrichment (interaction score)),[2],-6.77
GGCUAGAACUAGUGGAUCCCCCGGCGCCCGGCGGCUCGAGCCCGGGUAAGCUGGAGAAGUCUGCAUGCCGCCGGGCGCCAUGCCUGCAGGUCGACUCUAGAAAACAUG,binding signal (log2 enrichment (interaction score)),[1],-5.47
same,binding signal (log2 enrichment (interaction score)),[3],< -0.81
GGCUAGAACUAGUGGAUCCCCCGGCGCCCGGCGGCUCGAGCCCGGGUAAGUUGAUAAAGUCUGCAUGCCGCCGGGCGCCAUGCCUGCAGGUCGACUCUAGAAAACAUG,binding signal (log2 enrichment (interaction score)),[1],-4.91
same,binding signal (log2 enrichment (interaction score)),[2],-7.69
same,binding signal (log2 enrichment (interaction score)),[3],-0.93
GGCUAGAACUAGUGGAUCCCCCGGCGCCCGGCGGCUCGAGCCCGGGUAAGAUCACACUGUCUGCAUGCCGCCGGGCGCCAUGCCUGCAGGUCGACUCUAGAAAACAUG,binding signal (log2 enrichment (interaction score)),[1],-5.56
same,binding signal (log2 enrichment (interaction score)),[3],-0.49
GGCUAGAACUAGUGGAUCCCCCGGCGCCCGGCGGCUCGAGCCCGGGUAAGUUGCAGGAGUCUGCAUGCCGCCGGGCGCCAUGCCUGCAGGUCGACUCUAGAAAACAUG,binding signal (log2 enrichment (interaction score)),[1],-5.79
same,binding signal (log2 enrichment (interaction score)),[2],< -7.71
GGCUAGAACUAGUGGAUCCCCCGGCGCCCGGCGGCUCGAGCCCGGGUAAGUUGUUGACGUCUGCAUGCCGCCGGGCGCCAUGCCUGCAGGUCGACUCUAGAAAACAUG,binding signal (log2 enrichment (interaction score)),[1],-6.14
same,binding signal (log2 enrichment (interaction score)),[3],-1.58
GGCUAGAACUAGUGGAUCCCCCGGCGCCCGGCGGCUCGAGCCCGGGUAAGGGUAAGAAGUCUGCAUGCCGCCGGGCGCCAUGCCUGCAGGUCGACUCUAGAAAACAUG,binding signal (log2 enrichment (interaction score)),[1],-6.2
same,binding signal (log2 enrichment (interaction score)),[2],< -7.66
GGCUAGAACUAGUGGAUCCCCCGGCGCCCGGCGGCUCGAGCCCGGGUAAGUUAACGGAGUCUGCAUGCCGCCGGGCGCCAUGCCUGCAGGUCGACUCUAGAAAACAUG,binding signal (log2 enrichment (interaction score)),[3],-1.48
GGCUAGAACUAGUGGAUCCCCCGGCGCCCGGCGGCUCGAGCCCGGGUAAGUUGUCUUAGUCUGCAUGCCGCCGGGCGCCAUGCCUGCAGGUCGACUCUAGAAAACAUG,binding signal (log2 enrichment (interaction score)),[3],-0.85
GGCUAGAACUAGUGGAUCCCCCGGCGCCCGGCGGCUCGAGCCCGGGUAAGCUAACUUAGUCUGCAUGCCGCCGGGCGCCAUGCCUGCAGGUCGACUCUAGAAAACAUG,binding signal (log2 enrichment (interaction score)),[4],< -2.19
GGCUAGAACUAGUGGAUCCCCCGGCGCCCGGCGGCUCGAGCCCGGGUAAGUGUUCAUUGUCUGCAUGCCGCCGGGCGCCAUGCCUGCAGGUCGACUCUAGAAAACAUG,binding signal (log2 enrichment (interaction score)),[5],-7.34
same,binding signal (log2 enrichment (interaction score)),[2],-7.61
GGCUAGAACUAGUGGAUCCCCCGGCGCCCGGCGGCUCGAGCCCGGGUAAGUAGAGGUAGUCUGCAUGCCGCCGGGCGCCAUGCCUGCAGGUCGACUCUAGAAAACAUG,binding signal (log2 enrichment (interaction score)),[5],< -7.32
same,binding signal (log2 enrichment (interaction score)),[2],< -7.14
GGCUAGAACUAGUGGAUCCCCCGGCGCCCGGCGGCUCGAGCCCGGGUAAGUGGCACAAGUCUGCAUGCCGCCGGGCGCCAUGCCUGCAGGUCGACUCUAGAAAACAUG,binding signal (log2 enrichment (interaction score)),[5],-6.37
same,binding signal (log2 enrichment (interaction score)),[6],-3.3
same,binding signal (log2 enrichment (interaction score)),[2],< -7.14
GGCUAGAACUAGUGGAUCCCCCGGCGCCCGGCGGCUCGAGCCCGGGUAAGUCGACGUAGUCUGCAUGCCGCCGGGCGCCAUGCCUGCAGGUCGACUCUAGAAAACAUG,binding signal (log2 enrichment (interaction score)),[5],< -7.17
same,binding signal (log2 enrichment (interaction score)),[6],-2.94
same,binding signal (log2 enrichment (interaction score)),[2],< -7
GGCUAGAACUAGUGGAUCCCCCGGCGCCCGGCGGCUCGAGCCCGGGUAAGUGGAGGAAGUCUGCAUGCCGCCGGGCGCCAUGCCUGCAGGUCGACUCUAGAAAACAUG,binding signal (log2 enrichment (interaction score)),[5],-6.71
same,binding signal (log2 enrichment (interaction score)),[2],< -7.58
GGCUAGAACUAGUGGAUCCCCCGGCGCCCGGCGGCUCGAGCCCGGGUAAGUGAAUGAAGUCUGCAUGCCGCCGGGCGCCAUGCCUGCAGGUCGACUCUAGAAAACAUG,binding signal (log2 enrichment (interaction score)),[5],-6.19
same,binding signal (log2 enrichment (interaction score)),[6],< -2.06
same,binding signal (log2 enrichment (interaction score)),[2],< -6.56
same,binding signal (log2 enrichment (interaction score)),[3],-1.89
GGCUAGAACUAGUGGAUCCCCCGGCGCCCGGCGGCUCGAGCCCGGGUAAGUAGACGAAGUCUGCAUGCCGCCGGGCGCCAUGCCUGCAGGUCGACUCUAGAAAACAUG,binding signal (log2 enrichment (interaction score)),[5],< -7.76
same,binding signal (log2 enrichment (interaction score)),[2],-7.06
GGCUAGAACUAGUGGAUCCCCCGGCGCCCGGCGGCUCGAGCCCGGGUAAGUAGCAGUAGUCUGCAUGCCGCCGGGCGCCAUGCCUGCAGGUCGACUCUAGAAAACAUG,binding signal (log2 enrichment (interaction score)),[5],-7.37
same,binding signal (log2 enrichment (interaction score)),[2],-7.9
GGCUAGAACUAGUGGAUCCCCCGGCGCCCGGCGGCUCGAGCCCGGGUAAGUGCUCGUAGUCUGCAUGCCGCCGGGCGCCAUGCCUGCAGGUCGACUCUAGAAAACAUG,binding signal (log2 enrichment (interaction score)),[5],-6.09
same,binding signal (log2 enrichment (interaction score)),[6],-2.54
same,binding signal (log2 enrichment (interaction score)),[2],< -7.11
GGCUAGAACUAGUGGAUCCCCCGGCGCCCGGCGGCUCGAGCCCGGGUAAGUGGCGGAAGUCUGCAUGCCGCCGGGCGCCAUGCCUGCAGGUCGACUCUAGAAAACAUG,binding signal (log2 enrichment (interaction score)),[5],< -7.84
same,binding signal (log2 enrichment (interaction score)),[2],< -6.95
GGCUAGAACUAGUGGAUCCCCCGGCGCCCGGCGGCUCGAGCCCGGGUAAGUUGAUGCAGUCUGCAUGCCGCCGGGCGCCAUGCCUGCAGGUCGACUCUAGAAAACAUG,binding signal (log2 enrichment (interaction score)),[5],-8.27
same,binding signal (log2 enrichment (interaction score)),[2],< -8.17

# Part of the list above, with bars between the fields:
sequence | measurement | setting | value
GGCUAGAACUAGUGGAUCCCCCGGCGCCCGGCGGCUCGAGCCCGGGUAAGUUAACGGAGUCUGCAUGCCGCCGGGCGCCAUGCCUGCAGGUCGACUCUAGAAAACAUG | binding signal (log2 enrichment (interaction score)) | [3] | -1.48
GGCUAGAACUAGUGGAUCCCCCGGCGCCCGGCGGCUCGAGCCCGGGUAAGUUGUCUUAGUCUGCAUGCCGCCGGGCGCCAUGCCUGCAGGUCGACUCUAGAAAACAUG | binding signal (log2 enrichment (interaction score)) | [3] | -0.85
GGCUAGAACUAGUGGAUCCCCCGGCGCCCGGCGGCUCGAGCCCGGGUAAGCUAACUUAGUCUGCAUGCCGCCGGGCGCCAUGCCUGCAGGUCGACUCUAGAAAACAUG | binding signal (log2 enrichment (interaction score)) | [4] | < -2.19
GGCUAGAACUAGUGGAUCCCCCGGCGCCCGGCGGCUCGAGCCCGGGUAAGUGUUCAUUGUCUGCAUGCCGCCGGGCGCCAUGCCUGCAGGUCGACUCUAGAAAACAUG | binding signal (log2 enrichment (interaction score)) | [5] | -7.34
same | binding signal (log2 enrichment (interaction score)) | [2] | -7.61
GGCUAGAACUAGUGGAUCCCCCGGCGCCCGGCGGCUCGAGCCCGGGUAAGUAGAGGUAGUCUGCAUGCCGCCGGGCGCCAUGCCUGCAGGUCGACUCUAGAAAACAUG | binding signal (log2 enrichment (interaction score)) | [5] | < -7.32
same | binding signal (log2 enrichment (interaction score)) | [2] | < -7.14
GGCUAGAACUAGUGGAUCCCCCGGCGCCCGGCGGCUCGAGCCCGGGUAAGUGGCACAAGUCUGCAUGCCGCCGGGCGCCAUGCCUGCAGGUCGACUCUAGAAAACAUG | binding signal (log2 enrichment (interaction score)) | [5] | -6.37
same | binding signal (log2 enrichment (interaction score)) | [6] | -3.3
same | binding signal (log2 enrichment (interaction score)) | [2] | < -7.14
GGCUAGAACUAGUGGAUCCCCCGGCGCCCGGCGGCUCGAGCCCGGGUAAGUCGACGUAGUCUGCAUGCCGCCGGGCGCCAUGCCUGCAGGUCGACUCUAGAAAACAUG | binding signal (log2 enrichment (interaction score)) | [5] | < -7.17
same | binding signal (log2 enrichment (interaction score)) | [6] | -2.94
same | binding signal (log2 enrichment (interaction score)) | [2] | < -7
